The results in this text go back to PMC10273075.

Construct, isoform or probe ends are uncertain for at least one entry. No signal at the amounts used counts as a negative.

For one series, the system named is HIS-ABI5. Description: EMSA. The following applies: EMSA: protein and biotin-labeled probe incubated at 24 C for 30 min; native PAGE; recombinant protein; protein details: His (pET32a); label: 3' biotin.
A further series relates to HIS-MYB44. Description: EMSA. The following applies: EMSA: protein and biotin-labeled probe incubated at 24 C for 30 min; native PAGE; recombinant protein; protein details: His (pET32a); label: biotin. (A gel shift assay detects complexes by their altered migration in electrophoresis.)

In the case of “CTTCTTCAAACGTGTACGCAACA (double strand) [PAO-P2]”, the binding result in the series on HIS-ABI5 is reported as “no binding”. For the sequence “TGGATTGCAGAACTGTCTCCTAGGC (double strand) [PPH-Pr4]”, the binding result in the series with HIS-MYB44 was “no binding”.

As for “ATAAAACTGAATTTCTCTATTCAAA (double strand) [PAO-Pr2]”, the binding result in the series on HIS-MYB44 is reported as “no binding”.
